Experimental data as given in PubChem BioAssay AID504444 (National Center for Advancing Translational Sciences (NCATS), 2011).
Out of some 360,000 compounds screened, about 7,500 (2.1%) were called active. Inconclusive results, whose numbers are uncertain, are shown with a selection of clear calls. Calls come from the whole dose curve; as a rule, active = well fitted inhibition curve with a large enough effect; inconclusive = small, poorly fitted or top-dose-only effect, or effect the other way; inactive = flat fitted curve, though single readings scatter. Where the call is inconclusive, the potency comes from a doubtful curve fit.

Assay: Nrf2 qHTS screen for inhibitors; note: nearly all actives have a fitted effect of over 60% in size
Conditions: A549 ARE-Fluc reporter, luciferase luminescence, 18-24 h; activity change, negative = inhibition: at 46 µM (top of the series)
Procedure, shortened: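 Two sequential reads on A549 ARE_Fluc cells exposed to compound for 18-24 h: a CellTiter-Fluor fluorescence read for viability, then a luciferase luminescence read for Nrf2/ARE activity.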
% is set by controls: 0 for no effect and ±100 for the full control effect; potency is the fitted concentration of half-maximal effect.

Row | SMILES | Potency | activity change, negative = inhibition
1 | COc1cc(-c2nc(-c3ccccc3)c(-c3cccs3)[nH]2)cc(OC)c1OC | inconclusive: 23.1 µM [falling, single point] | –
2 | Cc1ccc(S(=O)(=O)N2CCCCC2)cc1NC(=O)CCCOc1ccccc1 | inconclusive: 29.1 µM [falling, single point] | –
3 | CCCCOc1ccc(C(=O)Nc2ccc(S(=O)(=O)Nc3cc(C)on3)cc2)cc1OC | inconclusive: 16.4 µM [falling, single point] | –
4 | Cn1cc(Cl)c(/C(N)=N/OC(=O)c2ccccc2C(F)(F)F)n1 | inconclusive: 16.4 µM [activator, partial curve] | –
5 | Cc1ccc2nc(N/N=C/c3ccccc3C#N)nc(-c3ccccc3)c2c1 | inconclusive: 29.1 µM [falling, single point] | –
6 | COc1ccccc1NC(=O)c1ccc(CS(=O)(=O)c2ccc(C)cc2)cc1 | inconclusive: 9.2 µM [falling, partial curve, poor fit] | –
7 | COc1ccccc1CNC(=O)C1CCCN(c2nnc(-n3c(C)ccc3C)s2)C1 (centres undefined) | inactive | –
8 | CC1=C(C(=O)OCC2CCCCC2)C(c2ccccc2F)CC(=O)N1 (centres undefined) | inconclusive: 7.31 µM [falling, partial curve] | –
9 | Cc1ccc(Oc2ccc(-c3nc(N)nc(N)n3)cc2)cc1C | inconclusive: 29.1 µM [falling, single point] | –
10 | COc1ccc(N2C(=O)c3ccccc3NC2c2ccc(OC)c(CSc3ccccn3)c2)cc1 (centres undefined) | inactive | –
11 | CC(=O)N1CCc2cc(N=NC3=C(O)CCCC3=O)ccc21 | inconclusive: 29.1 µM [activator, single point] | –
12 | O=C(Nc1ccc(Oc2ccccc2)cc1)c1ccc(Cn2c(=O)[nH]c3ccsc3c2=O)cc1 | inconclusive: 0.164 µM [falling, full curve, poor fit] | –
13 | CC(C)(C)C(=O)Nc1ccc(C(=O)Nc2cccc(Oc3ccc(C(=O)O)c(C(=O)O)c3)c2)cc1 | active: 20.6 µM | –
14 | CCOc1ccc(C=NNc2ccc(S(=O)(=O)Nc3ccccc3C(=O)O)cc2[N+](=O)[O-])cc1OC | inactive | –
15 | CC(=O)Nc1ccc(NC2CCCCC2NS(=O)(=O)c2ccc(Cl)cc2)cc1 (centres undefined) | inconclusive: 29.1 µM [falling, single point] | –
16 | CCN(c1ccccc1)S(=O)(=O)c1cccc(C(=O)NCC(c2ccco2)N2CCCCC2)c1 (centres undefined) | inconclusive: 29.1 µM [falling, partial curve, poor fit] | –
17 | CCOC(=O)CSc1nnc(CNC(=O)c2ccc(OC)cc2OC)n1C | inconclusive: 2.06 µM [falling, partial curve, poor fit] | –
18 | COc1ccc(C(=O)Cn2cc[n+](C)c2)cc1 | inconclusive: 8.2 µM [falling, partial curve] | –
19 | CC(=O)c1cn(CC(=O)NCc2ccc3c(c2)OCO3)c2ccccc12 | inconclusive: 10.3 µM [falling, partial curve] | –
20 | Nc1[nH]n(-c2ccccc2)c(=O)c1N=Nc1ccccc1 | inconclusive: 20.6 µM [activator, single point] | –
21 | COc1cccc(OCCOc2cccc(/C=N/n3cnnc3)c2)c1 | inconclusive: 1.64 µM [activator, full curve] | –
22 | CCOC(=O)c1ccc(NC(=O)c2ccccc2)cc1 | inconclusive: 1.16 µM [activator, full curve] | –

Row | SMILES | Potency | activity change, negative = inhibition
23 | Cc1cc(/C=N/n2cnnc2)c(C)n1-c1ccc(OCc2ccc(Cl)cc2)cc1 | active: 9.2 µM | –
24 | CCn1c(SCCOc2ccccc2F)nc2ccccc21 | inconclusive: 0.103 µM [falling, partial curve, poor fit] | –
25 | CCOC(=O)c1c(NC(C)=O)sc2c(OCC(O)CNC(C)(C)C)c(Br)ccc12 (centres undefined) | inactive | –
26 | Cc1cccnc1Nc1nc(-c2ccc(O)c(O)c2)cs1 | inconclusive: 10.3 µM [activator, partial curve] | –
27 | CCOC(=O)COc1ccc(S(=O)(=O)NCc2ccncc2)cc1 | inconclusive: 20.6 µM [falling, single point] | –
28 | Cc1ccc(CN2C(=O)CCC2C(=O)N2CCN(c3ccc(F)cc3)CC2)cc1 (centres undefined) | inconclusive: 29.1 µM [falling, single point] | –
29 | CSc1nc2ccccc2n1CC(=O)Nc1cc(C(F)(F)F)ccc1N1CCOCC1 | inconclusive: 18.4 µM [falling, partial curve] | –
30 | Cc1nn(-c2ccc(N3CCOCC3)nn2)c(C)c1CCC(=O)NCc1ccc(OC(C)C)cc1 | inconclusive: 18.4 µM [activator, partial curve, poor fit] | –
31 | Cc1c(C2=CCN(S(=O)(=O)c3ccc(CC(C)C)cc3)CC2)c2ccccc2n1CC(=O)N1CCCC1 | inactive | –
32 | CN(Cc1ccccc1)C(=O)c1[nH]cnc1C(=O)Nc1cccc(Cl)c1 | inactive | –
33 | COc1ccc(C(=O)N(Cc2ccc(C(C)C)cc2)C2CCS(=O)(=O)C2)cc1 (centres undefined) | inconclusive: 9.2 µM [falling, partial curve, poor fit] | –
34 | CC(=O)COc1cc(C)cc2oc(=O)c(C)c(C)c12 | inactive | –
35 | Cc1ccc(Cn2ncc3c(N4CCN(c5ccc(C)cc5)CC4)ncnc32)cc1 | inconclusive: 13 µM [falling, partial curve] | –
36 | COCC1CCN(C(=O)c2cc(COc3ccc4ncccc4c3)on2)CC1 | active: 3.66 µM | –
37 | CO[C@H]1CC[C@@]2(C)[C@@H](CC[C@@H]3[C@@H]2CC[C@@]2(C)[C@H]3C[C@H](C(=O)O)O[C@]23CCCO3)C1 | inactive | –
38 | COc1cc(NC(=S)NC(C)=O)ccc1NC(=O)C(C)C | inconclusive: 4.61 µM [activator, full curve] | –
39 | Cc1nc2nc(SCC(=O)NCCc3ccccc3)nn2c(C)c1Cc1c(F)cccc1Cl | – | inactive: 4.75% [at 9.27 µM]
40 | Cc1nc(NCCc2ccc(O)cc2)c2nnn(Cc3ccccc3)c2n1 | inconclusive: 29.1 µM [falling, single point] | –
41 | Cc1ccccc1CNS(=O)(=O)c1csc(C(N)=O)c1 | inconclusive: 16.4 µM [activator, partial curve, poor fit] | –
42 | Cc1ccc(C(C)C)c(OCC(=O)N2CCC(c3nc4ccccc4o3)CC2)c1 | inconclusive: 18.4 µM [falling, single point] | –
43 | O=C(OCc1nc2ccccc2s1)C1CCN(S(=O)(=O)c2cccs2)CC1 | inconclusive: 11.2 µM [activator, partial curve] | –
44 | CC(C)c1ccc(S(=O)(=O)/N=C2/C=C(Sc3ncn[nH]3)C(=O)c3ccccc32)cc1 | active: 18.4 µM | –

Structural class: the compounds so far containing two or more sulfur atoms.
Row | SMILES | Potency | activity change, negative = inhibition
41 | Cc1ccccc1CNS(=O)(=O)c1csc(C(N)=O)c1 | inconclusive: 16.4 µM [activator, partial curve, poor fit] | –
43 | O=C(OCc1nc2ccccc2s1)C1CCN(S(=O)(=O)c2cccs2)CC1 | inconclusive: 11.2 µM [activator, partial curve] | –
44 | CC(C)c1ccc(S(=O)(=O)/N=C2/C=C(Sc3ncn[nH]3)C(=O)c3ccccc32)cc1 | active: 18.4 µM | –

The listing continues.

Row | SMILES | Potency | activity change, negative = inhibition
45 | Nc1c(C(=O)c2ccc(Br)s2)oc2ccccc12 | inactive | –
46 | CSCCC(NS(=O)(=O)c1ccc(Cl)cc1)C(=O)OCc1c(Cl)cccc1Cl (centres undefined) | inconclusive: 23.1 µM [falling, partial curve, poor fit] | –
47 | O=C1NC(=O)C2(COC(c3cccc([N+](=O)[O-])c3)OC2)S1 (centres undefined) | inconclusive: 16.4 µM [falling, partial curve, poor fit] | –
48 | COc1ccccc1N1CCN(C(=O)c2cccc(C(=O)N3CCN(c4ccccc4OC)CC3)c2)CC1 | inconclusive: 16.4 µM [falling, partial curve, poor fit] | –
49 | Cc1cc2nnc(SC(C)C)n2c2ccccc12 | inactive | –
50 | COc1ccc(-c2cn3nc(N4CCC(C(=O)Nc5cccc(C)c5C)CC4)sc3n2)cc1 | inactive | –
51 | COc1cccc(C(=O)c2c[nH]c(C(=O)NCc3cccnc3)c2)c1 | inconclusive: 18.4 µM [falling, single point] | –
52 | Cc1cc([N+](=O)[O-])ccc1NC1CCCC1 | inconclusive: 29.1 µM [falling, single point] | –
53 | O=C(C1CC1c1ccccc1)N1CCOCC1 (centres undefined) | inconclusive: 4.61 µM [activator, partial curve, poor fit] | –
54 | Cc1ccc(-c2nc(=Nc3ccccc3)sn2-c2ccccc2)cc1 | inconclusive: 29.1 µM [falling, single point] | –
55 | CCCSc1ncc(Cl)c(C(=O)Nc2sc3c(c2C(=O)NCCOC)CCCC3)n1 | inactive | –
56 | CC(C)(C)c1ccc2c(c1)OC(C(=O)N/N=C/c1ccc([N+](=O)[O-])o1)CO2 (centres undefined) | inconclusive: 25.9 µM [activator, partial curve, poor fit] | –
57 | Cc1cc(C(=O)N/N=C/c2cc(Br)cc([N+](=O)[O-])c2O)c2ccccc2n1 | inconclusive: 20.6 µM [falling, single point] | –
58 | Cn1cnc([N+](=O)[O-])c1Sc1ncn[nH]1 | inconclusive: 16.4 µM [activator, single point] | –
59 | CCOC(=O)CSc1nc(C)nc2c1sc1nc(C)c(C(C)=O)c(-c3ccc(OC)cc3)c12 | inconclusive: 18.4 µM [activator, single point] | –
60 | O=C(/C=C\c1ccc(-c2cccc([N+](=O)[O-])c2)o1)N1CCOCC1 | inconclusive: 1.84 µM [falling, partial curve] | –
61 | Cc1cc([N+](=O)[O-])ccc1NC(=O)c1cc2ccccc2o1 | inconclusive: 16.4 µM [activator, partial curve, poor fit] | –
62 | Cc1cccc(N(C)S(=O)(=O)c2cc3c(cc2Cl)NC(=O)CO3)c1 | inconclusive: 5.17 µM [activator, partial curve, poor fit] | –
63 | Cc1cc(C(=O)COC(=O)c2ccc[nH]c2=O)c(C)n1-c1ccc(F)cc1 | inconclusive: 1.3 µM [activator, partial curve, poor fit] | –
64 | CCOc1ccc(NS(=O)(=O)c2ccc3[nH]c4c(c3c2)CCCC4)cc1 | inconclusive: 7.31 µM [falling, partial curve] | –
